Data from the supplement of paper PMC8728848.
Some of the results follow.

What was measured:
Experiment in all cases: glycan array binding signal (z-score within array); higher = stronger binding
Settings in all cases: glycan notation: IUPAC condensed, linker removed
[1] = target: Neu5Ac(a2-3)Gal(b1-3)[Fuc(a1-4)]GlcNAc
How it was run: (§1)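 Glycan array binding is given as a within-array Z-score, which can be read as non-binding when negative. The arrays, 3228 of them, came from the Consortium for Functional Glycomics database and were retained only where the protein sequence was available. Z-scores were averaged across arrays of the same protein sequence at different concentrations or buffers and across linkers.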

[2] = target: Neu5Ac(a2-3)Gal(b1-3)[Fuc(a1-4)]GlcNAc(b1-3)Gal(b1-3)[Fuc(a1-4)]GlcNAc
How it was run: as §1

[3] = target: Neu5Ac(a2-3)Gal(b1-3)[Fuc(a1-4)]GlcNAc(b1-3)Gal(b1-4)[Fuc(a1-3)]GlcNAc
How it was run: as §1

[4] = target: Neu5Ac(a2-3)Gal(b1-3)[GlcNAc(b1-6)]GalNAc
How it was run: as §1

[5] = target: Neu5Ac(a2-3)Gal(b1-3)[Neu5Ac(a2-6)]GalNAc
How it was run: as §1

[6] = target: Neu5Ac(a2-3)Gal(b1-3)[Neu5Ac(a2-6)]GlcNAc(b1-3)[Fuc(a1-3)[Gal(b1-4)]GlcNAc(b1-6)]Gal(b1-4)Glc
How it was run: as §1

[7] = target: Neu5Ac(a2-3)Gal(b1-3)]Neu5Ac(a2-3)Gal(b1-4)]GlcNAc
How it was run: as §1

Neu5Ac(a2-3)Gal(b1-4)Glc = target: Neu5Ac(a2-3)Gal(b1-4)Glc
How it was run: as §1

[8] = target: Neu5Ac(a2-3)Gal(b1-4)GlcNAc
How it was run: as §1

[9] = target: Neu5Ac(a2-3)Gal(b1-4)GlcNAc(b1-2)Man
How it was run: as §1

[10] = target: Neu5Ac(a2-3)Gal(b1-4)GlcNAc(b1-2)Man(a1-3)[GlcNAc(b1-4)][Neu5Ac(a2-3)Gal(b1-4)GlcNAc(b1-2)Man(a1-6)]Man(b1-4)GlcNAc(b1-4)GlcNAc
How it was run: as §1

[11] = target: Neu5Ac(a2-3)Gal(b1-4)GlcNAc(b1-2)Man(a1-3)[Neu5Ac(a2-3)Gal(b1-4)GlcNAc(b1-2)Man(a1-6)]Man(b1-4)GlcNAc(b1-4)GlcNAc
How it was run: as §1

[12] = target: Neu5Ac(a2-3)Gal(b1-4)GlcNAc(b1-2)Man(a1-3)[Neu5Ac(a2-3)Gal(b1-4)GlcNAc(b1-2)Man(a1-6)]Man(b1-4)GlcNAc(b1-4)[Fuc(a1-6)]GlcNAc
How it was run: as §1

[13] = target: Neu5Ac(a2-3)Gal(b1-4)GlcNAc(b1-2)Man(a1-3)[Neu5Ac(a2-6)Gal(b1-4)GlcNAc(b1-2)Man(a1-6)]Man(b1-4)GlcNAc(b1-4)GlcNAc
How it was run: as §1

[14] = target: Neu5Ac(a2-3)Gal(b1-4)GlcNAc(b1-2)[Neu5Ac(a2-3)Gal(b1-4)GlcNAc(b1-4)]Man(a1-3)[GlcNAc(b1-4)][Neu5Ac(a2-3)Gal(b1-4)GlcNAc(b1-2)[Neu5Ac(a2-3)Gal(b1-4)GlcNAc(b1-6)]Man(a1-6)]Man(b1-4)GlcNAc(b1-4)GlcNAc
How it was run: as §1

[15] = target: Neu5Ac(a2-3)Gal(b1-4)GlcNAc(b1-2)[Neu5Ac(a2-3)Gal(b1-4)GlcNAc(b1-4)]Man(a1-3)[GlcNAc(b1-4)][Neu5Ac(a2-3)Gal(b1-4)GlcNAc(b1-4)Man(a1-6)]Man(b1-4)GlcNAc(b1-4)GlcNAc
How it was run: as §1

[16] = target: Neu5Ac(a2-3)Gal(b1-4)GlcNAc(b1-2)[Neu5Ac(a2-3)Gal(b1-4)GlcNAc(b1-6)]Man(a1-6)[Neu5Ac(a2-3)Gal(b1-4)GlcNAc(b1-2)Man(a1-3)]Man(b1-4)GlcNAc(b1-4)GlcNAc
How it was run: as §1

[17] = target: Neu5Ac(a2-3)Gal(b1-4)GlcNAc(b1-2)[Neu5Ac(a2-3)Gal(b1-4)GlcNAc(b1-6)]Man(a1-6)[Neu5Ac(a2-3)Gal(b1-4)GlcNAc(b1-2)Man(a1-3)][GlcNAc(b1-4)]Man(b1-4)GlcNAc(b1-4)GlcNAc
How it was run: as §1

[18] = target: Neu5Ac(a2-3)Gal(b1-4)GlcNAc(b1-3)Gal
How it was run: as §1

[19] = target: Neu5Ac(a2-3)Gal(b1-4)GlcNAc(b1-3)Gal(b1-3)GlcNAc
How it was run: as §1

[20] = target: Neu5Ac(a2-3)Gal(b1-4)GlcNAc(b1-3)Gal(b1-4)GlcNAc
How it was run: as §1

[21] = target: Neu5Ac(a2-3)Gal(b1-4)GlcNAc(b1-3)Gal(b1-4)GlcNAc(b1-2)Man(a1-3)[Neu5Ac(a2-3)Gal(b1-4)GlcNAc(b1-3)Gal(b1-4)GlcNAc(b1-2)Man(a1-6)]Man(b1-4)GlcNAc(b1-4)GlcNAc
How it was run: as §1

[22] = target: Neu5Ac(a2-3)Gal(b1-4)GlcNAc(b1-3)Gal(b1-4)GlcNAc(b1-3)Gal(b1-4)GlcNAc
How it was run: as §1

[23] = target: Neu5Ac(a2-3)Gal(b1-4)GlcNAc(b1-3)Gal(b1-4)GlcNAc(b1-3)Gal(b1-4)GlcNAc(b1-2)Man(a1-3)[Neu5Ac(a2-3)Gal(b1-4)GlcNAc(b1-3)Gal(b1-4)GlcNAc(b1-3)Gal(b1-4)GlcNAc(b1-2)Man(a1-6)]GalNAc
How it was run: as §1

[24] = target: Neu5Ac(a2-3)Gal(b1-4)GlcNAc(b1-3)Gal(b1-4)GlcNAc(b1-3)GalNAc
How it was run: as §1

[25] = target: Neu5Ac(a2-3)Gal(b1-4)GlcNAc(b1-3)Gal(b1-4)GlcNAc(b1-3)[Neu5Ac(a2-3)Gal(b1-4)GlcNAc(b1-3)Gal(b1-4)GlcNAc(b1-6)]GalNAc
How it was run: as §1

[26] = target: Neu5Ac(a2-3)Gal(b1-4)GlcNAc(b1-3)Gal(b1-4)GlcNAc(b1-6)[Gal(b1-3)]GalNAc
How it was run: as §1

[27] = target: Neu5Ac(a2-3)Gal(b1-4)GlcNAc(b1-3)Gal(b1-4)[Fuc(a1-3)]GlcNAc
How it was run: as §1

[28] = target: Neu5Ac(a2-3)Gal(b1-4)GlcNAc(b1-3)GalNAc
How it was run: as §1

[29] = target: Neu5Ac(a2-3)Gal(b1-4)GlcNAc(b1-3)[Neu5Ac(a2-3)Gal(b1-4)GlcNAc(b1-6)]GalNAc
How it was run: as §1

B1: PX14343F-bfa-562-20-562 (Bacteroides fragilis) (protein)
chain: CDDFLDSFPQDTVTNENFWKSKEDADKVLVDIYASLLPKDAIFFDEAMSDNAYLVWDWWGGAQQVANGSYTTSGEIPTNRWNGSYEVIRKCWFLLEGIEKIEDISEQDKNKIIGETYFMLAYNYYVLTSYFGDVPLVTKTLAIPESKQLVRTPKAEVVDYAINKLKEAAVMLEGLSQEKGRVTADACRFLIARMYLYNGDYSNVLETVKLLEGKYQLYREGDTPYEDLFSGVAENSCEVILSVVCDKRVGEIYTSHGGNGIMLLKGITGEDPYRGVTPSGSLVDAYPMADGRLIHEAGSSYDPKKPYEGRDPRFYQSIVYPTGQIKYLDVETGTVKERLYDPEDPTTVPEHQYNYSQPSATGYMWNKYIDYSVYAMNSVWDCTNDIIVFRYADVLLMKAEALLQTKGESAKEEVCNLIDQLRDRCSCGRVHRENYNSKDELMELLKNERRIELANEGLRYMDLIRWKDAEKNTIVTGVGLTGQMYGAYMRKDGVGKDDKTVDVDNTPRRYIETRYFNASKGYLFPIPQKERDLNPNLTQNPNW
Question: For B1, which “glycan array binding signal (z-score)” value [1] is on record?
Answer: -0.87

Question: And the “glycan array binding signal (z-score)” value [2]?
Answer: -0.121

Question: And the “glycan array binding signal (z-score)” value [3]?
Answer: 0.048

Question: And the “glycan array binding signal (z-score)” value [4]?
Answer: -0.515

Question: And the “glycan array binding signal (z-score)” value [5]?
Answer: -0.574

Question: What about the “glycan array binding signal (z-score)” value [6] of the same binder?
Answer: -0.957

Question: What about the “glycan array binding signal (z-score)” value [7] of the same binder?
Answer: -0.4

Question: And the “glycan array binding signal (z-score)” value (Neu5Ac(a2-3)Gal(b1-4)Glc)?
Answer: -0.605

Question: What about the “glycan array binding signal (z-score)” value [8] of the same binder?
Answer: -0.665

Question: What about the “glycan array binding signal (z-score)” value [9] of the same binder?
Answer: 1.07

Question: What about the “glycan array binding signal (z-score)” value [10] of the same binder?
Answer: 0.338

Question: What about the “glycan array binding signal (z-score)” value [11] of the same binder?
Answer: -0.132

Question: And the “glycan array binding signal (z-score)” value [12]?
Answer: 1.29

Question: What about the “glycan array binding signal (z-score)” value [13] of the same binder?
Answer: 0.404

Question: And the “glycan array binding signal (z-score)” value [14]?
Answer: -0.511

Question: And the “glycan array binding signal (z-score)” value [15]?
Answer: -0.105

Question: And the “glycan array binding signal (z-score)” value [16]?
Answer: 0.73

Question: What about the “glycan array binding signal (z-score)” value [17] of the same binder?
Answer: -0.512

Question: And the “glycan array binding signal (z-score)” value [18]?
Answer: -0.842

Question: What about the “glycan array binding signal (z-score)” value [19] of the same binder?
Answer: 0.659

Question: What about the “glycan array binding signal (z-score)” value [20] of the same binder?
Answer: 0.486

Question: What about the “glycan array binding signal (z-score)” value [21] of the same binder?
Answer: -0.019

Question: What about the “glycan array binding signal (z-score)” value [22] of the same binder?
Answer: 0.314

Question: And the “glycan array binding signal (z-score)” value [23]?
Answer: 1.17

Question: What about the “glycan array binding signal (z-score)” value [24] of the same binder?
Answer: -0.095

Question: What about the “glycan array binding signal (z-score)” value [25] of the same binder?
Answer: 1.61

Question: And the “glycan array binding signal (z-score)” value [26]?
Answer: -0.22

Question: What about the “glycan array binding signal (z-score)” value [27] of the same binder?
Answer: -0.419

Question: What about the “glycan array binding signal (z-score)” value [28] of the same binder?
Answer: 0.102

Question: And the “glycan array binding signal (z-score)” value [29]?
Answer: -0.067
